Experimental data from PMC4231120.
These are yes or no findings as the source states them, for the method shown. In cells and extracts the contact can be indirect. A yes stands for co-enrichment or nearness to the bait. Other partners may have been found. Sequences can lack the tags named with a protein.

Molecular target: T1, PLASMODESMATA-LOCATED PROTEIN 1 (PDLP1) fused to GFP (Arabidopsis) (UniProt Q8GXV7)
T1 sequence: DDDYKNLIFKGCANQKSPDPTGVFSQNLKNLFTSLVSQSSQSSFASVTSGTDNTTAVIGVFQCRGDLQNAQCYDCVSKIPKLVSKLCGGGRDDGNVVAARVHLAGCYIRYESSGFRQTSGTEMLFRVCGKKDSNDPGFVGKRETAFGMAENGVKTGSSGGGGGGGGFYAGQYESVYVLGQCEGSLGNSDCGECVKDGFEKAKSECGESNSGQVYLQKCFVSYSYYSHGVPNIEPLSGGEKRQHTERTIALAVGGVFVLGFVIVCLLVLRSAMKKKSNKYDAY
Assay: affinity purification with mass spectrometry; PDLP1-GFP immunoprecipitated with GFP-Trap beads from leaf extracts of PDLP1 OE plants, Hpa-infected and uninfected; 50 mM Tris-HCl pH 7.5, 150 mM NaCl, 10% glycerol, 1 mM EDTA, 5 mM DTT, 1% IGEPAL CA630; 4°C, 2 h; bands from SDS-PAGE analysed by LC-MS/MS; at least three replicate IPs

- binding: binds
B1: PATELLIN 1 (PATL1) (protein, UniProt Q56WK6 1-573)
chain: MAQEEVQKSADVAAAPVVKEKPITDKEVTIPTPVAEKEEVAAPVSDEKAVPEKEVTPEKEAPAAEAEKSVSVKEEETVVVAEKVVVLTAEEVQKKALEEFKELVREALNKREFTAPVTPVKEEKTEEKKTEEETKEEEKTEEKKEETTTEVKVEEEKPAVPAAEEEKSSEAAPVETKSEEKPEEKAEVTTEKASSAEEDGTKTVEAIEESIVSVSPPESAVAPVVVETVAVAEAEPVEPEEVSIWGVPLLQDERSDVILTKFLRARDFKVKEALTMLKNTVQWRKENKIDELVESGEEVSEFEKMVFAHGVDKEGHVVIYSSYGEFQNKELFSDKEKLNKFLSWRIQLQEKCVRAIDFSNPEAKSSFVFVSDFRNAPGLGKRALWQFIRRAVKQFEDNYPEFAAKELFINVPWWYIPYYKTFGSIITSPRTRSKMVLAGPSKSADTIFKYIAPEQVPVKYGGLSKDTPLTEETITEAIVKPAANYTIELPASEACTLSWELRVLGADVSYGAQFEPTTEGSYAVIVSKTRKIGSTDEPVITDSFKVGEPGKIVITIDNQTSKKKKVLYRFKTQ
